PubChem BioAssay AID504764 | Drosophila RNAi Screening Center | 2011
Assay: 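Genes whose knock-down alters Notch-dependent transcription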 (primary screen). Cell system: Drosophila Kc167 cells. Knock-down reagent: long dsRNA against Drosophila genes. Time to read-out: about 5 days (4 days dsRNA, then 24 h after transfection). Conditions: transfection of constitutively active membrane-tethered Notch lacking the extracellular domain, read 24 h later. Measured: 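Light from a Notch-responsive E(spl)m3 luciferase reporter under active Notch, with control-promoter and no-Notch reporter wells to normalise; raw counts from paired wells a and b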. Reading the numbers: induced reporter light, run 1, well a and induced reporter light, run 1, well b: higher = more light from the Notch target reporter with active Notch; control promoter light, run 1, well a and control promoter light, run 1, well b: higher = more light from the viral control promoter (cell number, transfection, viability); uninduced reporter light, run 1, well a: higher = more light from the Notch target reporter without active Notch. Active means: 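Hit if the duplicate-averaged log2 ratio of induced to control-promoter light gives a plate-wise z beyond ±2, or induced to uninduced beyond ±1.8; weak-control or discordant-duplicate wells dropped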. Meaning of the calls: active = modifier hit (raised or lowered Notch signal); inactive = not a hit.
In all, the deposit lists about 22,000 reagents; below is a random part of those with a known target gene and a result. Over the whole deposit, 403 (1.9%) were called active. 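Unnormalised raw counts per well; ratio z-scores behind the hit calls and whether each hit raises or lowers signal are not deposited.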 Names joined by + are all predicted targets of the reagent. Not stated in the record: the amount of reagent.

| gene knocked down | dsRNA | induced reporter light, run 1, well a | induced reporter light, run 1, well b | control promoter light, run 1, well a | control promoter light, run 1, well b | uninduced reporter light, run 1, well a | call |
| --- | --- | --- | --- | --- | --- | --- | --- |
| CG14052 | DRSC17907 | 1.66e5 | 1.55e5 | 2.42e5 | 2.69e5 | 10020 | inactive |
| CG14052 | DRSC18192 | 94870 | 1.07e5 | 1.97e5 | 1.51e5 | 7085 | inactive |
| nompC | DRSC03581 | 1.85e5 | 1.16e5 | 1.62e5 | 1.68e5 | 10980 | inactive |
| Tak1 | DRSC20390 | 88735 | 97230 | 1.17e5 | 1.11e5 | 7945 | inactive |
| Tak1 | DRSC20561 | 96540 | 1.03e5 | 96195 | 1.40e5 | 11215 | inactive |
| Tak1 | DRSC20562 | 1.02e5 | 94705 | 1.09e5 | 1.69e5 | 12725 | inactive |
| CG14535 | DRSC02393 | 1.28e5 | 1.68e5 | 1.02e5 | 1.23e5 | 21250 | inactive |
| Decay | DRSC16930 | 2.28e5 | 2.14e5 | 2.32e5 | 2.50e5 | 18040 | inactive |
| Pif1 | DRSC00582 | 1.96e5 | 1.83e5 | 1.66e5 | 1.80e5 | 16745 | inactive |
| BoYb | DRSC11637 | 1.20e5 | 1.14e5 | 67610 | 94700 | 8075 | inactive |
| CG14891 | DRSC15013 | 1.40e5 | 1.62e5 | 2.00e5 | 2.21e5 | 11080 | inactive |
| prd | DRSC03597 | 1.88e5 | 1.74e5 | 1.73e5 | 2.32e5 | 14045 | inactive |
| TTLL12 | DRSC06555 | 2.65e5 | 2.32e5 | 2.51e5 | 2.84e5 | 16850 | inactive |
| CG33281 | DRSC00421 | 1.57e5 | 1.52e5 | 1.65e5 | 1.76e5 | 8820 | inactive |
| eag | DRSC19067 | 89655 | 97970 | 96975 | 95860 | 8035 | inactive |
| eag | DRSC20328 | 88660 | 79780 | 81785 | 74455 | 11688 | inactive |
| CG42237 | DRSC19891 | 1.02e5 | 1.14e5 | 1.88e5 | 1.24e5 | 7805 | inactive |
| mRpS5 | DRSC21380 | – | – | – | – | – | inactive |
| Rat1 | DRSC02044 | 14290 | 15560 | 18150 | 23310 | 1888 | active |
| CG31693 | DRSC03674 | 99735 | 88750 | 93535 | 1.21e5 | 10315 | inactive |
| CG9391 | DRSC11858 | 1.18e5 | 1.14e5 | 1.11e5 | 80010 | 8255 | inactive |
| Nak | DRSC03379 | 1.99e5 | 1.87e5 | 1.82e5 | 1.94e5 | 18870 | inactive |
| CG9662 | DRSC00723 | 1.59e5 | 1.88e5 | 1.74e5 | 1.72e5 | 11988 | inactive |
| Vha36-2 | DRSC06294 | 77555 | 70805 | 99915 | 92105 | 8388 | inactive |
| CG14488 | DRSC06460 | 1.23e5 | 83900 | 1.12e5 | 1.14e5 | 8090 | inactive |
| CG18870 | DRSC04313 | 52595 | 34075 | 33575 | 48985 | 3495 | inactive |
| Eig71Ec | DRSC11150 | 1.52e5 | 2.17e5 | 2.46e5 | 1.89e5 | 9845 | inactive |
| CG17780 | DRSC15265 | 1.24e5 | 1.56e5 | 1.68e5 | 1.85e5 | 13610 | inactive |
| Ccdc114 | DRSC15025 | 2.19e5 | 2.31e5 | 2.06e5 | 2.18e5 | 16640 | inactive |
| Tep4 | DRSC03453 | 43890 | 33120 | 47620 | 66865 | 2120 | inactive |
| Ptp36E | DRSC03021 | 1.96e5 | 2.31e5 | 2.23e5 | 2.40e5 | 17878 | inactive |
| Kr-h1 | DRSC00908 | 86480 | 83895 | 90595 | 83575 | 6060 | inactive |
| Kr-h1 | DRSC03355 | 1.57e5 | 1.70e5 | 1.54e5 | 1.55e5 | 15040 | inactive |
| Hsp67Ba | DRSC11191 | 1.28e5 | 87095 | 1.25e5 | 1.19e5 | 7710 | inactive |
| CG12343 | DRSC06135 | 1.45e5 | 1.12e5 | 1.79e5 | 1.41e5 | 9875 | inactive |
| PolD3 | DRSC01961 | 1.92e5 | 1.64e5 | 1.78e5 | 1.87e5 | 14500 | inactive |
| CG13795 | DRSC02299 | 95550 | 1.29e5 | 97540 | 1.22e5 | 18215 | inactive |
| CG8170 | DRSC07087 | 1.66e5 | 1.48e5 | 2.10e5 | 1.86e5 | 13970 | inactive |

The list goes on; the last 8 above are carried over.
| gene knocked down | dsRNA | induced reporter light, run 1, well a | induced reporter light, run 1, well b | control promoter light, run 1, well a | control promoter light, run 1, well b | uninduced reporter light, run 1, well a | call |
| --- | --- | --- | --- | --- | --- | --- | --- |
| Ptp36E | DRSC03021 | 1.96e5 | 2.31e5 | 2.23e5 | 2.40e5 | 17878 | inactive |
| Kr-h1 | DRSC00908 | 86480 | 83895 | 90595 | 83575 | 6060 | inactive |
| Kr-h1 | DRSC03355 | 1.57e5 | 1.70e5 | 1.54e5 | 1.55e5 | 15040 | inactive |
| Hsp67Ba | DRSC11191 | 1.28e5 | 87095 | 1.25e5 | 1.19e5 | 7710 | inactive |
| CG12343 | DRSC06135 | 1.45e5 | 1.12e5 | 1.79e5 | 1.41e5 | 9875 | inactive |
| PolD3 | DRSC01961 | 1.92e5 | 1.64e5 | 1.78e5 | 1.87e5 | 14500 | inactive |
| CG13795 | DRSC02299 | 95550 | 1.29e5 | 97540 | 1.22e5 | 18215 | inactive |
| CG8170 | DRSC07087 | 1.66e5 | 1.48e5 | 2.10e5 | 1.86e5 | 13970 | inactive |
| drl | DRSC03523 | 1.94e5 | 1.88e5 | 1.74e5 | 1.76e5 | 13800 | inactive |
| CG31872 | DRSC02568 | 1.04e5 | 1.56e5 | 70960 | 95960 | 15842 | inactive |
| CG31872 | DRSC02572 | 1.45e5 | 1.47e5 | 78660 | 1.09e5 | 16385 | inactive |
| CG13449 | DRSC09996 | 1.79e5 | 1.94e5 | 2.46e5 | 1.93e5 | 9170 | inactive |
| Rph | DRSC17790 | 70030 | 64440 | 1.66e5 | 1.35e5 | 8120 | inactive |
| sotv + CG10731 | DRSC05930 | 1.13e5 | 88000 | 1.13e5 | 1.05e5 | 8950 | inactive |
| sotv + CG10731 | DRSC05997 | 1.75e5 | 1.28e5 | 1.17e5 | 1.30e5 | 9455 | inactive |
| CG1275 | DRSC08294 | 65640 | 55505 | 87635 | 70150 | 4345 | inactive |
| CG14855 | DRSC14979 | 2.07e5 | 2.00e5 | 1.70e5 | 1.44e5 | 15150 | inactive |
| aqrs | DRSC14724 | 1.02e5 | 97955 | 1.69e5 | 1.38e5 | 9615 | inactive |
| CG32214 | DRSC09613 | 2.12e5 | 2.57e5 | 3.37e5 | 2.85e5 | 18130 | inactive |
| CG12259 | DRSC14486 | 1.20e5 | 1.38e5 | 1.76e5 | 1.57e5 | 12010 | inactive |
| woc | DRSC15928 | 1.56e5 | 2.03e5 | 2.29e5 | 2.92e5 | 11188 | inactive |
| tbrd-2 | DRSC07020 | 93165 | 97945 | 95285 | 99670 | 7795 | inactive |
| klhl10 | DRSC05274 | 2.14e5 | 2.38e5 | 3.07e5 | 3.34e5 | 23125 | inactive |
| klhl10 | DRSC19171 | 98110 | 87050 | 1.05e5 | 1.08e5 | 8030 | inactive |
| klhl10 | DRSC20750 | 1.06e5 | 98670 | 1.00e5 | 1.11e5 | 10925 | inactive |
| klhl10 | DRSC20925 | 1.21e5 | 94440 | 97235 | 1.15e5 | 10412 | inactive |
| CG14260 | DRSC14755 | 1.55e5 | 1.14e5 | 2.13e5 | 1.67e5 | 12060 | inactive |
| MED27 | DRSC12205 | 72460 | 1.03e5 | 67505 | 62830 | 6910 | inactive |
| CR16735 | DRSC15144 | 75260 | 67390 | 74005 | 53595 | 4982 | inactive |
| nbs | DRSC11373 | 1.52e5 | 1.17e5 | 2.06e5 | 1.11e5 | 7755 | inactive |
| Arpc2 | DRSC02113 | 2.55e5 | 2.65e5 | 2.22e5 | 2.26e5 | 16825 | inactive |
| Nep7 | DRSC15830 | 1.80e5 | 1.55e5 | 1.73e5 | 1.69e5 | 13675 | inactive |
| Setx | DRSC10859 | 3.23e5 | 2.93e5 | 4.09e5 | 4.22e5 | 26875 | inactive |
| ENGase | DRSC19952 | 1.65e5 | 1.95e5 | 2.89e5 | 2.61e5 | 12270 | inactive |
| ENGase | DRSC19953 | 44645 | 39515 | 52010 | 52520 | 6695 | inactive |
